Experimental data: PubChem BioAssay AID1159584 (Peter MacCallum Cancer Centre, 2016)

Aim: 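Knock-downs that harm CDH1-null cells more than parental MCF10A cells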 (primary screen)
Cells: human MCF10A breast epithelial cells, parental and CDH1-null
Knock-down reagent: siRNA against human genes
Measurement: 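ATP luminescence (CellTiter-Glo) viability per line relative to mean mock wells over all plates, and the ratio of CDH1-null to parental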
Reading the numbers: CDH1-null / parental viability ratio: higher = CDH1-null cells survive relatively better than parental; CDH1-null viability vs mock: higher = more viable CDH1-null cells; parental viability vs mock: higher = more viable parental cells
This is a random part of about 18,000 reagents. Reagent sequences are not shown. Not given: the amount of reagent, the time to read-out.

target	CDH1-null / parental viability ratio	CDH1-null viability vs mock (fraction of mock)	parental viability vs mock (fraction of mock)
RAD51 (GeneID 5888)	0.85	0.51	0.6
H2BC5 (GeneID 3017)	1.24	0.82	0.66
RNF144B (GeneID 255488)	0.76	0.61	0.8
HAGHL (GeneID 84264)	1.12	0.94	0.84
KCNK7 (GeneID 10089)	1.28	0.92	0.72
PLEKHM3 (GeneID 389072)	1.01	0.76	0.75
MUCL3 (GeneID 135656)	1.26	0.96	0.76
NAAA (GeneID 27163)	1.04	0.96	0.92
CCDC150 (GeneID 284992)	0.9	0.74	0.82
DUSP16 (GeneID 80824)	1.16	0.87	0.75
P2RY10 (GeneID 27334)	0.71	0.73	1.03
BLZF1 (GeneID 8548)	0.9	0.96	1.07
PLAC9 (GeneID 219348)	0.82	0.5	0.61
TRIM58 (GeneID 25893)	0.97	0.76	0.78
HSPA6 (GeneID 3310)	0.95	0.8	0.84
TLR4 (GeneID 7099)	0.8	0.6	0.75
IGFBP4 (GeneID 3487)	0.81	0.57	0.7
UBTFL7 (GeneID 646759)	0.74	0.5	0.68
GCKR (GeneID 2646)	1.07	0.94	0.88
BAX (GeneID 581)	1.28	1.25	0.98
ITGA2B (GeneID 3674)	1.22	0.61	0.5
GREB1 (GeneID 9687)	0.96	0.96	1
TMEM203 (GeneID 94107)	0.76	0.34	0.45
EVPL (GeneID 2125)	1.05	0.88	0.84
NOL3 (GeneID 8996)	1.06	0.36	0.34
CACNG3 (GeneID 10368)	1.23	1.01	0.82
GPR39 (GeneID 2863)	0.74	0.61	0.82
DHRS11 (GeneID 79154)	1.34	1.03	0.77
ANKRD13D (GeneID 338692)	1.18	0.86	0.73
DNAH5 (GeneID 1767)	0.97	0.74	0.76
IGFL2 (GeneID 147920)	1.04	0.71	0.68
TLL2 (GeneID 7093)	1.25	0.6	0.48
HBG2 (GeneID 3048)	0.9	0.78	0.87
CLDN1 (GeneID 9076)	1.04	0.81	0.78
GLMP (GeneID 112770)	0.95	0.97	1.02
ADPRHL1 (GeneID 113622)	0.73	0.57	0.78
PLP1 (GeneID 5354)	0.8	0.8	1
WIPI1 (GeneID 55062)	1.42	0.68	0.48
RPS2 (GeneID 6187)	1	0.2	0.2
NSG2 (GeneID 51617)	0.79	0.53	0.67
CDC40 (GeneID 51362)	1.33	0.64	0.48
PLAAT3 (GeneID 11145)	0.85	0.61	0.72
ACOXL (GeneID 55289)	0.76	0.55	0.72
OR2C3 (GeneID 81472)	0.87	0.6	0.69
SLC34A3 (GeneID 142680)	0.96	0.86	0.9
DSG3 (GeneID 1830)	1.27	1.27	1
SSBP2 (GeneID 23635)	1.5	0.84	0.56
BEND4 (GeneID 389206)	0.94	0.75	0.8
MAB21L4 (GeneID 79919)	1.26	0.86	0.68
CGNL1 (GeneID 84952)	0.81	0.78	0.96
GYPB (GeneID 2994)	1.19	1.01	0.85
TMEM215 (GeneID 401498)	0.76	0.62	0.82
DNAJB13 (GeneID 374407)	0.96	0.81	0.84
DAP (GeneID 1611)	0.74	0.54	0.73
ZNF321P (GeneID 399669)	1.08	0.77	0.71
TACR1 (GeneID 6869)	0.8	0.78	0.97
PAQR5 (GeneID 54852)	0.73	0.45	0.62
KRTAP17-1 (GeneID 83902)	1.37	0.52	0.38
RASGEF1A (GeneID 221002)	1.09	1.08	0.99
AVIL (GeneID 10677)	0.84	0.74	0.88
TRPM2 (GeneID 7226)	1.28	0.88	0.69
SCAF11 (GeneID 9169)	0.82	0.62	0.76
MAGED4B (GeneID 81557)	1.04	0.94	0.9
SEC14L3 (GeneID 266629)	0.73	0.58	0.79
KIAA2013 (GeneID 90231)	1.41	0.93	0.66
HCN2 (GeneID 610)	1.04	0.77	0.74
LRRN4CL (GeneID 221091)	0.9	0.72	0.8
UBASH3B (GeneID 84959)	0.79	0.74	0.94
